Assay [1] deals with T1, Arabidopsis PP2A A2 (PDF1) (Arabidopsis) (UniProt Q38950).
T1 sequence: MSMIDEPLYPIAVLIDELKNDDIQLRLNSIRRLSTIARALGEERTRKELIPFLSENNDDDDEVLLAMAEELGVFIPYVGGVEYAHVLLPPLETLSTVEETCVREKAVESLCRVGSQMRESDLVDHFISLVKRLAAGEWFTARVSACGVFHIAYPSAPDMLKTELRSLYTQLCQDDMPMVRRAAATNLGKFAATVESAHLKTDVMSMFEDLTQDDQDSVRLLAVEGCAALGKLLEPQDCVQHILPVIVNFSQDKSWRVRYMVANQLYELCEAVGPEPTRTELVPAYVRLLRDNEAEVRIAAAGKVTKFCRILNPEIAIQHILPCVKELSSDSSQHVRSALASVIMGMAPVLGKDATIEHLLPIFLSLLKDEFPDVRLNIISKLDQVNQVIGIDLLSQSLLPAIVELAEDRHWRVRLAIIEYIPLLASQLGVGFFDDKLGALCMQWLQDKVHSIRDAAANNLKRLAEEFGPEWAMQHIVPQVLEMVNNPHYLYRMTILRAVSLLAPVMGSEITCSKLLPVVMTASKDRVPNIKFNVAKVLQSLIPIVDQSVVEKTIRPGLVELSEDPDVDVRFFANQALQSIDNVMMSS
In words: yeast two hybrid (FIG. 4).

Amino acid sequences for entries named in this document (tags omitted). A change or cut given only in a name is not applied to a line headed by its entry.
UniProt D0NRS4: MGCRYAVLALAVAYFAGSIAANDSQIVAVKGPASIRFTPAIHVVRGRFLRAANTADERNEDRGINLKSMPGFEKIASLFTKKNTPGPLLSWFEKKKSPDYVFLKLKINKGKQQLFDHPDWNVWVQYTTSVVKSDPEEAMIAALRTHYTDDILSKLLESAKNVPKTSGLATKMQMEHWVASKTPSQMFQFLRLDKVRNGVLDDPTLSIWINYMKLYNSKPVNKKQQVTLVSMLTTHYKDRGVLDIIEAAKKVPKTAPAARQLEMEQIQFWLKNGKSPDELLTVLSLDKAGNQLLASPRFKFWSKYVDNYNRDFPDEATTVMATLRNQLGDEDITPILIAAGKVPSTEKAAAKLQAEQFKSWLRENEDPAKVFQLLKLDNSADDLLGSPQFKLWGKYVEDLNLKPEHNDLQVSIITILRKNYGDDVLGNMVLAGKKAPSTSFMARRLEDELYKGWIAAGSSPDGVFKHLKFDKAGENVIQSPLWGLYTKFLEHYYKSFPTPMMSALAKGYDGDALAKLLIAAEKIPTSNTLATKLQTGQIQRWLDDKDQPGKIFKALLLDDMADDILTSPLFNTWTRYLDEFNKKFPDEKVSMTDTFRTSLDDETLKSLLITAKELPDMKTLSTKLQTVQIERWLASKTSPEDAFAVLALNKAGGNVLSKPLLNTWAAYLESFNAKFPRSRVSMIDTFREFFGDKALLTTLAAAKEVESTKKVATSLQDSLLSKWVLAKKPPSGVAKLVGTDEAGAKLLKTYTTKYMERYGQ

In assay [2] the target is T2, Arabidopsis PP2A subunit A RCN1 (Arabidopsis) (UniProt Q38845).
T2 sequence: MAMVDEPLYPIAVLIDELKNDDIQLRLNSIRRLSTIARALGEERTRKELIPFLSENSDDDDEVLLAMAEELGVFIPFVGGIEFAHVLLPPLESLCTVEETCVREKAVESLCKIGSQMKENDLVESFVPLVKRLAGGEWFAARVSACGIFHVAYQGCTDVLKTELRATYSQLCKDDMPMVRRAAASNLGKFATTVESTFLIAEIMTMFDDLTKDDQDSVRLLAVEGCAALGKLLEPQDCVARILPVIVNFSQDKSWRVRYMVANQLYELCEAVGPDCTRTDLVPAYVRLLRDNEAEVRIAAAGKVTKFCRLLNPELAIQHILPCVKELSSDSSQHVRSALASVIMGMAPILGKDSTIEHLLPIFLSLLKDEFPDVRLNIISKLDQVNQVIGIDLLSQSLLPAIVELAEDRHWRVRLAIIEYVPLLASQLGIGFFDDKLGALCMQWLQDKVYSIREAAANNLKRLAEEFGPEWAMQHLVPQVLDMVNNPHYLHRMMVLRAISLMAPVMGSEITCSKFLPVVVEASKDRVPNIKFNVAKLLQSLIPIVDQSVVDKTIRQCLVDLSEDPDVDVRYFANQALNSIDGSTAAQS
In words: yeast two hybrid (FIG. 4).

These are yes or no findings as the source states them, for the method shown. Some results given as binding are weak or reduced against the parent protein; the word gives no strength.

Take “PiPSR2 (PSR2 encoded by Phytophthora infestans) (from UniProt D0NRS4 22-760)”: the binding result in assay [1] and in assay [2] was “binds” throughout.

(Values after patent US20210238615A1.)
